Values are the deposited “Percent Effect”, in %.
How 0% and 100% were set is not recorded. Most values in the screen are low, and negative values occur.
Compounds were drawn at random from those tested, without regard to their results.

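Whole-cell assay for inhibitors of Mycobacterium tuberculosis growth, labelled Cornell in the record; the read-out is not stated. The concentration is filed as 10 mM, unlikely as a test dose, so the dose is not known. The record gives no direction; compounds strong in two other growth screens of this library score well above the rest, so higher reads as stronger inhibition. Size under these conditions: about 53,000 compounds, about 900 of them at 50% or above in at least one test.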

| SMILES | Percent Effect |
|---|---|
| `O=C(c1cccc(F)c1)N1CCc2ncc(Cn3cccn3)n2CC1` | 32.41% |
| `CC(C)n1c2ccccc2c2c1cc(C(=O)N(C)C)n2C` | 11.2% |
| `CCOc1ccccc1CN(C)C(C)c1nc(-c2cccnc2)no1` (stereo not drawn) | 2.136% |
| `NC(=O)C1CN(c2ccc(Br)cn2)CCO1` (stereo not drawn) | -9.205% |
| `CS(=O)(=O)N1CCCC(Cc2cnc(Br)cn2)CC1` (stereo not drawn) | -35.95% |
| `O=C(O)C(F)(F)F.[H][C@@]12OCCN(CC3CCOCC3)[C@@]1([H])CC[C@H]2OC` | -10.55% |
| `CCCn1cnnc1CNC(=O)CC1C(=O)NCCN1CC(C)(C)C` (stereo not drawn) | 21.91% |
| `O=C(NCC1(O)CCOCC1)c1ccc(F)cc1` | 31.43% |
| `O=C(NC[C@H]1OC[C@@H](NC2CCOCC2)[C@@H]1O)Nc1ccccc1` | -34.57% |
| `Cc1ccc(OCCC(=O)N(C)CCC#N)cc1C` | 2.586% |
| `CCCS(=O)(=O)N1CCC(Oc2ccc(C#N)cc2)CC1` | -2.476% |
| `CN(Cc1ccc2c(c1)OCO2)Cc1nc(-c2ccco2)no1` | 15.21% |
| `COc1ccc(Cl)cc1-c1cc(NC(=O)CNC(=O)C2CC2)[nH]n1` | -12.54% |
| `CCCNC(=O)C1CCN(CC(O)c2ccccc2C(F)(F)F)CC1` (stereo not drawn) | 2.884% |
| `CC(C)NC(=O)C1CN(C(=O)Cc2cccc(F)c2)CC12CCOCC2` (stereo not drawn) | 24.08% |
| `O=C(CCN1CCc2cncnc2C1)N1CCc2sccc2C1` | -1.8% |
| `COCC(O)CN(C)C(=O)NCc1ccc(-c2ccn[nH]2)cc1` (stereo not drawn) | -4.972% |
| `O=C(CNc1ccc(OC2CCOC2)cc1)NCc1cccs1` (stereo not drawn) | 8.02% |
| `CC(C)(C)C1SCC(=O)Nc2c1c(O)nn2C1CCCCC1` (stereo not drawn) | 0.2725% |
| `CC(=O)c1ccc(C(=O)N2C[C@@H](CN3CCCC3)[C@@H](CO)C2)cc1` | -20.15% |
| `Nc1nc2nc(C3CCCN(C(=O)c4cnccn4)C3)ccc2s1` (stereo not drawn) | -13.84% |
| `CN(C)CC1CN(c2ccc(C#N)cn2)CCO1` (stereo not drawn) | 19.38% |
| `COc1ccc(C(=O)CNC(=O)c2nc(Cl)sc2C(C)C)cc1` | -2.593% |
| `CCn1ncc(C(=O)NCc2ccc(C)c(OC)c2)c1C(F)(F)F` | 14.52% |
| `Cc1cc2n(n1)[C@@H](C(F)(F)F)C[C@@H](C1CCN(C(=O)C3CC3)CC1)N2` | -27.32% |
| `COC(=O)c1cc(C2CC2)nc2c(C#N)cnn12` | -38.17% |
| `CCN(CC)C(=O)N1CCN(C2=NCC(C)S2)CC1` (stereo not drawn) | -1.437% |
| `Cc1ccsc1C(=O)N1CCC2(CC1)C(=O)N(C)CCN2CC1CC1.O=C(O)C(F)(F)F` | 4.771% |
| `Cc1noc(C)c1-c1nc(C2CCCN(C(=O)CCN)C2)ccc1CO` (stereo not drawn) | 21.85% |
| `CC(C)c1nnc(CN(C)C(c2ccc(F)cc2)c2cccnc2)o1` (stereo not drawn) | 16.11% |
| `O=C(O)C(F)(F)F.O=C(O)C(F)(F)F.[H][C@@]12COC[C@]1(CNS(=O)(=O)CC)CN(Cc1cccnc1)C2` | 9.66% |
| `[H][C@@]12CCCO[C@]1([H])[C@H](Oc1cccnc1)CN2C(=O)c1cscn1` | -35.84% |
| `COc1coc(CN2CCCC(CCc3ccc(F)cc3)C2)cc1=O` (stereo not drawn) | -32.05% |
| `COC(=O)c1ccc(C(=O)NCC2(O)CCOCC2)cc1` | -3.803% |
| `CCN1C(=O)CCCC12CCCN(C(=O)c1ccncc1F)C2.O=C(O)C(F)(F)F` (stereo not drawn) | 2.285% |
| `CO[C@@H]1CCN(Cc2ccoc2)C[C@@H]1Cc1ccccc1.O=C(O)C(F)(F)F` | 9.681% |
| `COc1cc(CN(CCCN(C)C)Cc2ccccn2)cc2c1OCO2.O=C(O)CC(O)(CC(=O)O)C(=O)O` | 10.07% |
| `CCc1nc(Cn2c(=O)c3c(C(F)(F)F)cc(C)nc3n2C)no1` | 36.24% |
| `CC(C)C(=O)N1CCN(Cc2cnn(C)c2)CC2(CC(=O)N(C)C2)C1.O=C(O)C(F)(F)F` (stereo not drawn) | 25.34% |
| `CNC(=O)c1nc(CN2CCOC(Cc3ccc(F)cc3)C2)no1` (stereo not drawn) | -12.41% |
| `CCOc1ccccc1C(=O)NCc1nncn1C1CC1` | -27.96% |
| `CCOCC1CN(CCOCc2ccccc2)Cc2c1cnn2C` (stereo not drawn) | 9.544% |
| `Cc1nc(C)n(CC(=O)N2CCCC(c3nc(C)n4c(C)csc34)C2)n1` (stereo not drawn) | -44.8% |
| `O=C(O)C(F)(F)F.O=C(c1cnccn1)N1CCOC2(CCN(Cc3ccsc3)CC2)C1` | 28.64% |
| `COc1ccc(C(C)Nc2ncc(C(N)=O)cc2Cl)c(OC)c1` (stereo not drawn) | -3.008% |
| `Cc1nc(CN2CCOC(c3ccc(Cl)cc3)C2)oc1C` (stereo not drawn) | 14.61% |
| `CN(C)Cc1nnc2n1CCN(Cc1ccccn1)CC2` | 6.391% |
| `CCS(=O)(=O)NCC(=O)N1CC2(CCCC2)c2c(F)cccc21` | 19.01% |
| `[H][C@]12CC[C@]([H])(CN(Cc3cscn3)C1)N(C(=O)c1cc(C(C)C)on1)C2` | -4.768% |
| `COc1ccccc1OC1(C(=O)O)CCN(c2ccccn2)CC1` | -17.83% |
| `CCc1ncc(C(=O)N(C)CC2Cc3ccccc3O2)cn1` (stereo not drawn) | -5.723% |
| `COc1ccc(OCc2cc(C(=O)N3C[C@@H](C)O[C@@H](C)C3)n[nH]2)c(Cl)c1` | 4.963% |
| `O=c1[nH][nH]cc1-c1ccnc(NCCc2cccc(O)c2)n1` | 11.27% |
| `CCC1(C(=O)O)CCCN(C(=O)c2ccc(O)c(Cl)c2)C1` (stereo not drawn) | 7.413% |
| `COCCN1CCN(c2nc(O)cc(Cc3ccccc3F)n2)CC1` | 12.22% |
| `CC1(C)CN(C(=O)c2cnc(CN3CCCC3)s2)CC[C@]1(C)O` | -15.99% |
| `CN(C)c1nc(N)nc(CN2CCCC2c2ccsc2)n1` (stereo not drawn) | 34.69% |

Once more, the final 4:

Result for CCC1(C(=O)O)CCCN(C(=O)c2ccc(O)c(Cl)c2)C1 (stereo not drawn) was 7.413%.
Result for COCCN1CCN(c2nc(O)cc(Cc3ccccc3F)n2)CC1 was 12.22%.
Result for CC1(C)CN(C(=O)c2cnc(CN3CCCC3)s2)CC[C@]1(C)O was -15.99%.
Result for CN(C)c1nc(N)nc(CN2CCCC2c2ccsc2)n1 (stereo not drawn) was 34.69%.

Data taken from ChEMBL document CHEMBL3988442, “University of Dundee, Small-Polar-MMV Screening Library” (2021).